Source: publication PMC5234816
Substitutions are numbered along the chain they refer to. Results are given in words; binding and its absence hold for the method and conditions named. In cells and extracts the contact can be indirect. Some entries that bind do so weakly or less than the wild type. Where a sequence is shown, tags or fusion partners need not be part of it.

Tests used:
Assay in all cases: co-IP; HEK-293 cells transfected with SLITRK5 alleles; interaction with purified PTPδ-Fc examined by co-precipitation and immunoblot; only the binder purified
[1] = molecular target: T1, HA-tagged SLITRK5 P891L (pseudo-matched control mutation from the 1000 Genomes database) (human) (UniProt O94991)
T1 sequence: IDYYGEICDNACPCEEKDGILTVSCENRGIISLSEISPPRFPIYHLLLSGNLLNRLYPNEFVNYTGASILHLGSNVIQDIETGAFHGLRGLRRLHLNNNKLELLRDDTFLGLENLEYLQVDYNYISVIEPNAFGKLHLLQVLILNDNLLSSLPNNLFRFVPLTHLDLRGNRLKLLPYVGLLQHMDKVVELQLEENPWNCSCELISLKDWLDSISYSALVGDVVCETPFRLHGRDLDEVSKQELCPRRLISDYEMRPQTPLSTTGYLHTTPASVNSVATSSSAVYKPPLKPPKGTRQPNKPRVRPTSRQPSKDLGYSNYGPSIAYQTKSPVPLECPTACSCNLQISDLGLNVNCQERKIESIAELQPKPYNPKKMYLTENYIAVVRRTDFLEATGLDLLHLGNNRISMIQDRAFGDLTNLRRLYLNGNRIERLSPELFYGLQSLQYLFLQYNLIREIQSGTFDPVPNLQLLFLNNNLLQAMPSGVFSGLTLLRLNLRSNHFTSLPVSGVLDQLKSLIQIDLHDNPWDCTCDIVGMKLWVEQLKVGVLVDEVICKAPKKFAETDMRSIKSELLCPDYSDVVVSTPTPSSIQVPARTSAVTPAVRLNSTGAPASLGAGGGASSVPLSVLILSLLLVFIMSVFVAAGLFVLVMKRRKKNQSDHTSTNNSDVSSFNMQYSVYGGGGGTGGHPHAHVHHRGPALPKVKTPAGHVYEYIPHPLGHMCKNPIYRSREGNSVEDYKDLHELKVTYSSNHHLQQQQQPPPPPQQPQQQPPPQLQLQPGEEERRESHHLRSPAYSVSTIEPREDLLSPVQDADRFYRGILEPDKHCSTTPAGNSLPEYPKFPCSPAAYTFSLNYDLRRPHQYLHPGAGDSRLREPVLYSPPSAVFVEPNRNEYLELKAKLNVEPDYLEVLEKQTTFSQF

[2] = molecular target: T2, HA-tagged SLITRK5 E600K (rare non-synonymous mutation from an OCD subject) (human) (UniProt O94991)
T2 sequence: T1 sequence with E560K, L851P

[3] = molecular target: T3, HA-tagged SLITRK5 Q118H (pseudo-matched control mutation from the 1000 Genomes database) (human) (UniProt O94991)
T3 sequence: T1 sequence with Q78H, L851P

Measured: binding

B1: soluble PTPδ ectodomain fused to a human immunoglobulin Fc fragment (PTPδ-Fc) (Fc fusion, UniProt P23468 21-1265)
chain: ETPPRFTRTPVDQTGVSGGVASFICQATGDPRPKIVWNKKGKKVSNQRFEVIEFDDGSGSVLRIQPLRTPRDEAIYECVASNNVGEISVSTRLTVLREDQIPRGFPTIDMGPQLKVVERTRTATMLCAASGNPDPEITWFKDFLPVDTSNNNGRIKQLRSESIGGTPIRGALQIEQSEESDQGKYECVATNSAGTRYSAPANLYVRELREVRRVPPRFSIPPTNHEIMPGGSVNITCVAVGSPMPYVKWMLGAEDLTPEDDMPIGRNVLELNDVRQSANYTCVAMSTLGVIEAIAQITVKALPKPPGTPVVTESTATSITLTWDSGNPEPVSYYIIQHKPKNSEELYKEIDGVATTRYSVAGLSPYSDYEFRVVAVNNIGRGPPSEPVLTQTSEQAPSSAPRDVQARMLSSTTILVQWKEPEEPNGQIQGYRVYYTMDPTQHVNNWMKHNVADSQITTIGNLVPQKTYSVKVLAFTSIGDGPLSSDIQVITQTGVPGQPLNFKAEPESETSILLSWTPPRSDTIANYELVYKDGEHGEEQRITIEPGTSYRLQGLKPNSLYYFRLAARSPQGLGASTAEISARTMQSKPSAPPQDISCTSPSSTSILVSWQPPPVEKQNGIITEYSIKYTAVDGEDDKPHEILGIPSDTTKYLLEQLEKWTEYRITVTAHTDVGPGPESLSVLIRTNEDVPSGPPRKVEVEAVNSTSVKVSWRSPVPNKQHGQIRGYQVHYVRMENGEPKGQPMLKDVMLADAQWEFDDTTEHDMIISGLQPETSYSLTVTAYTTKGDGARSKPKLVSTTGAVPGKPRLVINHTQMNTALIQWHPPVDTFGPLQGYRLKFGRKDMEPLTTLEFSEKEDHFTATDIHKGASYVFRLSARNKVGFGEEMVKEISIPEEVPTGFPQNLHSEGTTSTSVQLSWQPPVLAERNGIITKYTLLYRDINIPLLPMEQLIVPADTTMTLTGLKPDTTYDVKVRAHTSKGPGPYSPSVQFRTLPVDQVFAKNFHVKAVMKTSVLLSWEIPENYNSAMPFKILYDDGKMVEEVDGRATQKLIVNLKPEKSYSFVLTNRGNSAGGLQHRVTAKTAPDVLRTKPAFIGKTNLDGMITVQLPEVPANENIKGYYIIIVPLKKSRGKFIKPWESPDEMELDELLKEISRKRRSIRYGREVELKPYIAAHFDVLPTEFTLGDDKHYGGFTNKQLQSGQEYVFFVLAVMEHAESKMYATSPYSDPVVSMDLDPQPITDEEE
binds: [1] | [2] | [3]
